No constants are given. Whether binding was seen depends on the method and setting. Binding seen in cells or lysates may run through a third protein. Binding can be weak; no strength is given.
Molecular target: T1, protein phosphatase 1 regulatory subunit 12C (in HL-1 cells) (mouse (endogenous in HL-1)) (UniProt Q3UMT1)
T1 sequence: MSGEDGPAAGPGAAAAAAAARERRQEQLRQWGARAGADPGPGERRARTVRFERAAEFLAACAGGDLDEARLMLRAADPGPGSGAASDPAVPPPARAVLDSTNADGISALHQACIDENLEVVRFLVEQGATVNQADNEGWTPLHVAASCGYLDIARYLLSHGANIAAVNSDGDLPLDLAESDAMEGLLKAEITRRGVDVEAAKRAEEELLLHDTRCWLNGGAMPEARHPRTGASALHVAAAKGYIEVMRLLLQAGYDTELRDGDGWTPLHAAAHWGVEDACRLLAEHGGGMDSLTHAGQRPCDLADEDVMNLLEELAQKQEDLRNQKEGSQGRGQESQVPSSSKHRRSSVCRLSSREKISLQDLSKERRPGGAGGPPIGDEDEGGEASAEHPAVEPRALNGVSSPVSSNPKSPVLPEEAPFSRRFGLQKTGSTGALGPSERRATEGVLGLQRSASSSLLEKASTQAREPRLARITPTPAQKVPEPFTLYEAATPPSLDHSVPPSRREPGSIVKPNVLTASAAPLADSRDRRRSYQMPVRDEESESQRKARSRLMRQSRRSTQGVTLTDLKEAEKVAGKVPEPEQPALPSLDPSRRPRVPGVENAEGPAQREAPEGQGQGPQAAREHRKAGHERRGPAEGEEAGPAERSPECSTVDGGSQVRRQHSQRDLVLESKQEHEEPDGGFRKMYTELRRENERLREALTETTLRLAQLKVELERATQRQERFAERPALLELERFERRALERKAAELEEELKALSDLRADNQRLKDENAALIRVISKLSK
Assay: co-IP

binding: binds
Substance: protein phosphatase 1 catalytic subunit (in HL-1 cells) (mouse (endogenous in HL-1)) (enzyme)
